Experimental data taken from ChEMBL document CHEMBL5303573, “Mapping human microbiome drug metabolism by gut bacteria and their genes” (Nature, 2019).

Assay: The drug is tested on Escherichia coli strain: BW25113 for biotransformation. The drug concentrations were measured before and after a 12-h incubation by liquid-chromatography-coupled mass spectrometry (LC–MS)
Conditions: 2 µM

For `Nc1nc2ccc(OC(F)(F)F)cc2s1` [RILUZOLE], the “Bacterial Biotransformation” value was “Compound NOT metabolized”.
